Results: paper PMC9645710, “Cryo-EM structures of peripherin-2 and ROM1 suggest multiple roles in photoreceptor membrane morphogenesis” (Science Advances, 2022)
No constants are given. Whether binding was seen depends on the method and setting.

Sequences of proteins named here, by UniProt entry; tags and fusion partners are left off. A change or cut given only in a name is not applied to a line headed by its entry.
UniProt P23942: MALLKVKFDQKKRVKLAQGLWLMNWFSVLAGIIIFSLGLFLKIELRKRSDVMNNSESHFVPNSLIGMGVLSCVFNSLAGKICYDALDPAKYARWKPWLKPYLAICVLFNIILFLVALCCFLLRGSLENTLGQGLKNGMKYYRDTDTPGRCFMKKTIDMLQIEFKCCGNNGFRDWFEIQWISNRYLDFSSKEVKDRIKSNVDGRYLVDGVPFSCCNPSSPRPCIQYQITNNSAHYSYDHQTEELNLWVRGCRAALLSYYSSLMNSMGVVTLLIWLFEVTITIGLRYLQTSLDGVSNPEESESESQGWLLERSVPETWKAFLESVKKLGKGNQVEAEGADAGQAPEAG
UniProt Q03395: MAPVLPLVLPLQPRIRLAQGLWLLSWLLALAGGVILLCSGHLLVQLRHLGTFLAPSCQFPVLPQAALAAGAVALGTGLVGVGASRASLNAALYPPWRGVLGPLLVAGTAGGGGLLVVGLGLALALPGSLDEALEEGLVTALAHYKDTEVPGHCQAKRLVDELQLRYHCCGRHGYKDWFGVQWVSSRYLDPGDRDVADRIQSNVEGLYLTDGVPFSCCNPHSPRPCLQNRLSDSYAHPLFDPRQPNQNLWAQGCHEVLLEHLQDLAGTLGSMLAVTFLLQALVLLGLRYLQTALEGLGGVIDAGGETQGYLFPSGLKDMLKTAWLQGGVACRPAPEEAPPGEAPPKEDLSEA

Molecular target: PRPH2-ROM1 heterodimer (wild-type PRPH2 and ROM1) (human) (UniProt P23942+Q03395)
Assay: SEC; as a3, with dithiothreitol added; both purified

Substance: PRPH2-ROM1 heterodimer (wild-type PRPH2 and ROM1) (from UniProt P23942 1-346; Q03395 1-351) (complex)
- binding: no binding (condition: with dithiothreitol)
